Data on 1 compound can be found in US4076830A, “Alkylmethanodibenzocycloheptapyrroles” (E. I. Du Pont de Nemours and Company, priority 1976, dated 1978).

A word on the LD50: it is the dose at which mortality reaches 50%. Low readings indicate greater toxicity, high ones lower toxicity.

SMILES strings stand for the structures.

The series is described as follows: general tranquilizer activity in mice (exploratory loss, ptosis, catatonia, muscle tone, grip and lift reflexes, pinna twitch reflex, tremors, death). As to conditions: mouse, in vivo, po. The protocol: Groups of five Carworth CF1 S female mice, 16-20 g each, were fasted 16-22 hours before use. The mice were put in opaque plastic "shoe-box" cages 15-30 min. before injection, and then treated orally with 4, 12, 36, 108 and 324 mg/kg of the compound to be tested […] in 1% aqueous distilled water solution of methylcellulose (Methocel®). Each dose was given in a standard volume of 0.45 ml. Observations were made at 0.5, 2 and 24 hours after dosing. ED50 values were calculated for each parameter including death (LD50). The ED50 and LD50 values are the doses at which 50% of the animals would be expected to respond.
Exploratory Activity - The mouse is placed on a stainless steel wire mesh screen (8 inches × 12 inches, 3 mesh per inch, 174 inch mesh openings) "shoe-box" lid (1 inch high) and is observed for normal activities, such as nose movements, head movements with apparent visual examination of the area, and/or walking around on the screen. Absence of or marked depression of these activities for 5 seconds constitutes loss of exploratory activity.
Ptosis - The mouse is picked up by the tail and placed on the screen with its head facing the observer. […]
Muscle Tone - The observer gently strokes the abdominal musculature of the mouse with thumb and forefinger. Flaccidity (or rarely, tenseness) is recorded. […]

In turn, `CN1C(=O)CN=C(c2ccccc2)c2cc(Cl)ccc21` [Diazepam, reference compound] yielded an LD50 at 24 h greater than 1000 mg/kg.
